# Measured values: article PMC7819943, “Rice protein-binding microarrays: a tool to detect cis-acting elements near promoter regions in rice”
# Protein sequences, listed by entry. Tags and fused reporters are not part of them.
# UniProt Q0JBA9, entry or part of it: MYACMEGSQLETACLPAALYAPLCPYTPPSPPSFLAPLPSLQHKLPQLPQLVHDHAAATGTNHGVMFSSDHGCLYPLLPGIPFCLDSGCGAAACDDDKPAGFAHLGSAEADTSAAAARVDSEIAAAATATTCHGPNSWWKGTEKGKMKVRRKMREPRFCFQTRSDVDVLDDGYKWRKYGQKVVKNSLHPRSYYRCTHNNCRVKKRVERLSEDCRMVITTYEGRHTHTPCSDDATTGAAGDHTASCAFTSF
# The list shows a part of the results.
# Biological target: OsWRKY34 (Oryza sativa, UniProt Q0JBA9 1-250)
# Test: protein-binding microarray (RPBM); PBS, 2% BSA, 51.3 ng/ul salmon testes DNA, 50 uM zinc acetate, 200 nM TF, 25 C, 1 h; high values mean tight binding
# Settings: protein: recombinant; tags: N-terminal polyhistidine and DsRed monomer fusion (pET32a); label: CyDye5-dUTP incorporated in the synthesized complementary strand; 3' TTTTT single-stranded linker to array surface; dsDNA, one strand shown
# Outline: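 Using Ni–NTA, transcription factors fused N-terminally to polyhistidine and DsRed were purified after expression in E. coli BL21-CodonPlus. These were incubated at 200 nM with a blocked, double-stranded custom Agilent array for 1 h at 25 °C in a buffer containing 50 µM zinc acetate, and the array was washed. The binding signal is per-feature fluorescence intensity (arbitrary units) on an Axon 4000B scanner.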
row,Sequence,binding signal
1,CCATTCTTAAGGTACCTCACTTTTTTTTTTCTGTTGGCTCCGGAGTCACCTAGTGCAG,8400 fluorescence intensity (a.u.)
2,ATCATAGTATTCCTTTAATTCCTGGTTCTAAACCTGTTAACGGAGTCACCTAGTGCAG,8910 fluorescence intensity (a.u.)
3,GGGTTGAGGGTGGGCCAGTGGAGGACTGGTGGAAGATAGCCGGAGTCACCTAGTGCAG,9120 fluorescence intensity (a.u.)
4,TGTTGACTTTTTCCGGCCCGGATTGACGCCGCAAGCCGAACGGAGTCACCTAGTGCAG,10300 fluorescence intensity (a.u.)
5,TGCTTAATTTCCATTGATTCGAACTGTAGTTGCACGCGCGCGGAGTCACCTAGTGCAG,8810 fluorescence intensity (a.u.)
6,AGGTCGACGTGTATATGTTCGTCTTTCATATCTCTGCTCTCGGAGTCACCTAGTGCAG,9640 fluorescence intensity (a.u.)
7,CGCACGCGTGAATCACATCGCCCCGTTTCCATTTTCCAACCGGAGTCACCTAGTGCAG,8130 fluorescence intensity (a.u.)
8,TCGAATCCTCCGCCCCGTCGTCTCCAAAACCCAACACCCACGGAGTCACCTAGTGCAG,8650 fluorescence intensity (a.u.)
9,ATGGTAGTGATCACCCGGCTCCACAGCTCCGGCCTTTTTACGGAGTCACCTAGTGCAG,9390 fluorescence intensity (a.u.)
10,GAAAACTCATGGGAGTAGCTATATTTATGGTGCCATATTTCGGAGTCACCTAGTGCAG,8290 fluorescence intensity (a.u.)
11,AGTCATTCTAGCATTTTTCACATTCATATTAATGTTAATGCGGAGTCACCTAGTGCAG,8630 fluorescence intensity (a.u.)
12,CCGTTGTCTTGGAATCATCTCCTCGAGATGTCAAACTCACCGGAGTCACCTAGTGCAG,10900 fluorescence intensity (a.u.)
13,CTTACCGTGTTATAGTAGCCACCCAGTCAGCCGCGCTAACCGGAGTCACCTAGTGCAG,8700 fluorescence intensity (a.u.)
14,TCTCTCTCTTTCTCGTCTCCTCCTATCCGCGTCCATCTCTCGGAGTCACCTAGTGCAG,9770 fluorescence intensity (a.u.)
15,GCGGAGGTGGTGAGCGGGGCGGTGGAGTGCTTCAAGCAGTCGGAGTCACCTAGTGCAG,8770 fluorescence intensity (a.u.)
16,ATCCTTGCCCGCCACGGTACACGAGTCCTACTATCCATACCGGAGTCACCTAGTGCAG,14700 fluorescence intensity (a.u.)
17,CAAGTGAGTGGCCATATCTTCCGACCTTCTACTTATTTCACGGAGTCACCTAGTGCAG,8470 fluorescence intensity (a.u.)
18,GCGCCTACCGTTGACTCTCCCCAGCCCGATCCGAAACCACCGGAGTCACCTAGTGCAG,10200 fluorescence intensity (a.u.)
19,ATATGGTTAAATTTGTGTAGGCTAGCTATATTTTTTTTCTCGGAGTCACCTAGTGCAG,10400 fluorescence intensity (a.u.)
20,ACATCAACGCCAACATCTTCCCCGTCTCTCTCGCTACCCACGGAGTCACCTAGTGCAG,9350 fluorescence intensity (a.u.)
21,TTTGCACTGTTTTATCCCTCGTCTTTTATTCAAAAAATTTCGGAGTCACCTAGTGCAG,13500 fluorescence intensity (a.u.)
22,GAACTGATCCATATATTTTTTTGACCATTCTAGCAAGTTCCGGAGTCACCTAGTGCAG,8140 fluorescence intensity (a.u.)
23,TTGATCTATCCTTCAATTCACACAATTAGCTTTGTTTTATCGGAGTCACCTAGTGCAG,8580 fluorescence intensity (a.u.)

# For convenience, part of the list above:
row,Sequence,binding signal
9,ATGGTAGTGATCACCCGGCTCCACAGCTCCGGCCTTTTTACGGAGTCACCTAGTGCAG,9390 fluorescence intensity (a.u.)
10,GAAAACTCATGGGAGTAGCTATATTTATGGTGCCATATTTCGGAGTCACCTAGTGCAG,8290 fluorescence intensity (a.u.)
